Laboratory results reported in PMC12040169 (PLOS Biology, 2025).
Where two headings read alike, the source gives them in different places. The list shows a part of the results.

System: T1, CTL2-GFP (C. trachomatis L2/434/Bu, GFP-expressing)
T1 construct: L2/434/Bu, GFP-expressing
Set-up: species or system HeLa; Intracellular C. trachomatis growth in HeLa cells, bulk GFP fluorescence relative to DMSO
Conditions: bulk GFP, single well, 28.5 h, 10 µM, inhibitor

SMILES	% of control remaining [%]	% of control remaining (Bulk GFP fluorescence) [%]
O=C(Nc1ccc(Cl)cc1)Nc1cc(S(=O)(=O)N2CCCC2)ccc1Cl [CBK266122]	127.032	–
Cn1cc(C(c2ccccc2OCC(=O)O)c2cn(C)c3ccccc23)c2ccccc21 [CBK266410]	181.569	–
Cn1cccc1C(=O)NCc1ccccc1OC1CCNC1 (centres unmarked) [CBK029463T]	100	–
N#C/C(=C/c1cn(CC(=O)O)c2ccccc12)c1ccc(C(=O)O)cc1 [CBK268977]	126.834	–
c1ccc2[nH]c(CCSCCc3nc4ccccc4[nH]3)nc2c1 [CBK023949]	93.044	–
Cc1cc(S(=O)(=O)N(c2ccc(C(C)(C)C)cc2)C2CCNCC2)c(C)s1 [CBK165075T]	63.3533	–
CC1(C)COC(CCN2CCN(c3ccc(F)cc3)CC2)c2ccccc21 (centres unmarked) [CBK024080C]	102.766	–
CC(=O)Nc1ccc(-c2ccc(C(=O)N3CCN(C(=O)N4CCCC4)CC3)cn2)cc1 [CBK160187]	101.595	–
c1cncc(-c2cn3ccnc3c(NC3CCCCC3)n2)c1 [CBK093606]	100	–
Cc1cc(Cc2ccccc2F)cc(C2CCN(C(=O)c3nc4ccc(F)cc4[nH]3)CC2)n1 [CBK285932]	84.8176	–
CC(C)Cn1cnc(S(=O)(=O)N2CCC(OCc3ccncc3)C2)c1 (centres unmarked) [CBK305456]	118.652	–
CN(CC1CCCCC1)C(=O)c1cc2ccsc2[nH]1 [CBK304518]	135.511	–
Cc1c(C)n(Cc2ccco2)c2ncnc(N3CCC(C(=O)O)CC3)c12 [CBK307599]	127.367	–
NC(=O)c1c(NC(=O)C2CC(=O)OC23CCCCC3)sc2c1CCCCC2 (centres unmarked) [CBK264189]	110.471	–
CN(C(=O)C1CCCO1)c1nc2c(s1)CCc1occc1-2 (centres unmarked) [CBK283483]	101.755	–
COc1cc2ccccc2cc1C(=O)Nc1nnc(-c2ccncc2)o1 [CBK287432]	139.491	–
O=C(O)CCCNC(=O)c1ccncc1 [CBK261146]	113.552	–
O=C(NC(c1ccccc1)c1ccco1)C1CCN(C(=O)CCC2CCCC2)CC1 (centres unmarked) [CBK059887]	124.428	–
CCCCc1nccc(-c2ccc(OCC)c(C(=O)O)c2)n1 [CBK307429]	155.872	–
COC(C)c1nc(C)c(C(=O)NC2CCCN(c3ccn(C)n3)C2=O)s1 (centres unmarked) [CBK305454]	131.772	–
Cn1c(CSc2nc3sc4c(c3c(=O)[nH]2)CCCC4)nnc1SC/C=C/c1ccccc1 [CBK264428]	115.871	–
NC(=O)c1c(NC(=O)c2ccc(COc3cc(Cl)ccc3Cl)o2)sc2c1CCCC2 [CBK265775]	125.488	–
Cc1cc(C(C)(C)C)cc(S(=O)(=O)Nc2ccc(C(=O)O)c(O)c2)c1C [CBK299820]	105.1	–
CS(=O)(=O)CCNC(=O)c1cnc(-c2ccc(F)cc2)c(-c2cccnc2)c1 [CBK038066]	105.375	–
COC(=O)c1ccc(SCc2nc(N3CCOCC3)c3c(c2C#N)CC(C)(C)OC3)o1 [CBK019077]	126.33	–
CC(C)(C)C1=CC2=NC3(CCC3)C3C[C@](O)(CO)[C@@H](O)[C@@H]3N2O1 (some centres unmarked) [CBK303262]	162.667	–

SMILES	% of control remaining [%]	% of control remaining (Bulk GFP fluorescence) [%]
O=C(O)C1(Cc2ccc(-c3cccs3)cc2)CCNC1 (centres unmarked) [CBK281679]	97.79	–
CC(C(=O)N1C2CCC1CC(O)(c1ccco1)C2)c1ccccc1 (centres unmarked) [CBK284112]	122.887	–
COc1ccc(C(=O)N[C@H]2C[C@@H]3C(=O)N[C@H]4CCN(C(=O)C5CCC5)[C@@H]4C(=O)N3C2)cc1 [CBK289266]	130.63	–
NS(=O)(=O)c1ccc(CN2CCCC2=O)cc1 [CBK288420]	86.6511	–
COCc1cn(C2CCN(c3cc(-n4cc(C)cn4)ncn3)CC2)nn1 [CBK307388]	124.583	–
CC(C)(C)NC(=O)N1CCC(Nc2nccc(C(F)(F)F)n2)CC1 [CBK028788]	114.27	–
O=C(NC1CCc2ccccc21)N1CCN(c2ccccc2)CC1 (centres unmarked) [CBK155208]	152.824	–
CC[C@H]1C[N@@]2CC[C@H]1C[C@@H]2CNS(=O)(=O)c1ccc(NC(C)=O)cc1 [CBK288745]	136.653	–
O=C(O)CCN1C(=O)C(=Cc2ccc(OCc3ccccc3)cc2)c2ccccc2C1=O [CBK297552]	135.046	–
COc1ccc(-c2ccnc(N[C@H]3CO[C@H]4[C@@H]3OC[C@@H]4NC(=O)C3CCCCC3)n2)cc1 [CBK289527]	106.599	–
CC(C)NC(=O)N(C)C1CCN(c2ncnc3ccccc23)CC1 [CBK306224]	110.495	–
CN1C(=O)C2(CC(=O)N(CCC3CCCCC3)C2=O)c2cc(Cl)ccc21 (centres unmarked) [CBK075231]	107.52	–
Cc1ccccc1Nc1nnc(-c2ccc(C(=O)NCCO)cc2)c2ccccc12 [CBK263743]	93.3494	–
CC(=O)NC[C@H]1CN(c2ccc(-c3nnc(CCC#N)s3)c(F)c2)C(=O)O1 [CBK017926]	9.2428	–
CCC(Sc1nc(=O)cc(-c2ccccc2)[nH]1)C(=O)O (centres unmarked) [CBK287135]	127.812	–
COc1ccc(CCCN2CCC(C(=O)NC(=O)Nc3cc(OC)c(OC)c(OC)c3)CC2)cc1 [CBK034855]	154.018	–
CC(=O)N[C@H](C(=O)N1CC[C@@H]2NC(=O)[C@@H](Cc3ccccc3)NC(=O)C3(C/C=C/C[C@@H]2C1)CCOCC3)[C@@H](C)O [CBK292186]	115.062	–
C[C@@H](Nc1nc(-c2cccc3ncccc23)cnc1N)c1ccccc1 [CBK063755]	100.296	–
COC(=O)N1CCc2ccc(N3C[C@H](CNC(C)=O)OC3=O)cc2CC1 [CBK022485]	14.7837	–
O=C(Cc1ccccc1)N1CCCC1c1n[nH]cc1-c1ccncc1 (centres unmarked) [CBK283435]	138.531	–
COC(=O)CCCN1CCCC12CCc1[nH]c3ccccc3c1C2 (centres unmarked) [CBK107798T]	109.836	–
CCOc1ccsc1C(=O)N1CCN(CCc2ccccc2)CC1 [CBK200229]	111.181	–
Cc1ccc(S(=O)(=O)NCC(=O)Nc2ccc3cc(Br)cnc3n2)cc1 [CBK067429]	88.1569	–
CCC(NC(=O)Nc1ccccc1C(=O)O)(C(F)(F)F)C(F)(F)F [CBK268000]	98.7144	–
c1ccc(-c2ccc(OCCCCN3CCNCC3)cc2)cc1 [CBK266028G]	179.645	–
O=C(Nc1cccc(S(=O)(=O)N2CCOCC2)c1)c1cc2ccccc2oc1=O [CBK268170]	107.833	–

SMILES	% of control remaining [%]	% of control remaining (Bulk GFP fluorescence) [%]
CC(NC(=O)c1cc(C(F)(F)F)[nH]n1)c1ccccn1 (centres unmarked) [CBK281712]	147.162	–
CCC(CN1CCCC1)NC(=O)Cc1cc(C)ccc1OC (centres unmarked) [CBK282759]	135.008	–
O=C(NCc1ccco1)[C@@H]1C=CCN1C(=O)Nc1ccccc1Cl [CBK284269]	114.795	–
Nc1nnc(SCC(=O)Nc2ccc3c(c2)OCCO3)s1 [CBK266331]	124.453	–
CCSC(C)CC1C/C(=N/O)c2c(C)noc2C1 (centres unmarked) [CBK021455]	132.665	–
C=CCn1c(Cc2csc(NC(=O)c3ccc(Cl)cc3)n2)n[nH]c1=S [CBK295318]	135.934	–
CCOC(=O)Cn1cnc2nc3c(cc2c1=O)CC(C)CC3 (centres unmarked) [CBK294402]	167.828	–
c1ccc(Nc2nc3nonc3n3cnnc23)cc1 [CBK287278]	129.121	–
CC1CCN(S(=O)(=O)c2ccc(NC(=O)C3=COCCO3)cc2)CC1 [CBK295332]	172.802	–
Nc1nc(=O)n([C@@H]2O[C@H](CO)[C@H](O)C2O)cc1I (some centres unmarked) [CBK201306]	122.29	–
COC(=O)[C@@H](C)NC(=O)[C@H]1CN(C(=O)c2cccnc2)CCN1C(=O)NC(C)C [CBK289630]	120.208	–
CCN(CC)C(=O)c1cccc(NS(=O)(=O)c2ccc(C)c(C(=O)O)c2)c1 [CBK296665]	119.07	–
CN1CCC[C@H]1C(=O)N1CCN(C(=O)c2ccco2)CC1 [CBK144449]	119.583	–
CC(=O)Nc1onc(C)c1-c1nc(-c2ccc(Cl)cc2Cl)cs1 [CBK067735]	99.0303	–
O=C(c1ccco1)N1CCN(c2cncc(-c3ccc4ccccc4c3)n2)CC1 [CBK065184]	100	–
Cc1cc(=O)oc2cc(OC(C)C(=O)NCC(=O)O)ccc12 (centres unmarked) [CBK286829]	112.266	–
COc1cc(CNc2cncc(-c3cccs3)n2)cc(OC)c1OC [CBK065526]	110.89	–
CN1CC(CO)CCC1Cc1c[nH]c2ccccc12 (centres unmarked) [CBK011468]	139.261	–
Cc1cc(NS(=O)(=O)N2CCOCC2)no1 [CBK269894]	134.375	–
Cn1c(N2CCOCC2)cc(=O)c2ccccc21 [CBK007775]	116.931	–
Cc1c(C(=O)O)sc2nc(SCC(=O)NCc3ccccc3)[nH]c(=O)c12 [CBK301214K]	–	158.828
O=C(Cc1ccc(F)cc1Cl)N1CCC(O)(c2ccccn2)CC1 [CBK283755]	115.92	–
CC(=O)N1CCN(Cc2c(C3CCCC3)[nH]c3ncccc23)CC1 [CBK285339]	140.313	–
COc1ccc2nc(C(=O)O)sc2c1 [CBK026523N]	114.517	–
NC(=O)c1ccccc1NC(=O)COc1ccccc1 [CBK262599]	100	–

Part of the list above, with bars between the fields.
SMILES | % of control remaining [%] | % of control remaining (Bulk GFP fluorescence) [%]
Cc1cc(=O)oc2cc(OC(C)C(=O)NCC(=O)O)ccc12 (centres unmarked) [CBK286829] | 112.266 | –
COc1cc(CNc2cncc(-c3cccs3)n2)cc(OC)c1OC [CBK065526] | 110.89 | –
CN1CC(CO)CCC1Cc1c[nH]c2ccccc12 (centres unmarked) [CBK011468] | 139.261 | –
Cc1cc(NS(=O)(=O)N2CCOCC2)no1 [CBK269894] | 134.375 | –
Cn1c(N2CCOCC2)cc(=O)c2ccccc21 [CBK007775] | 116.931 | –
Cc1c(C(=O)O)sc2nc(SCC(=O)NCc3ccccc3)[nH]c(=O)c12 [CBK301214K] | – | 158.828
